Some entries share one result that the patent states for a list of compounds. At least one compound was matched to its structure with a doubt left.
Experiments:
Type in all cases: in vivo
[1] = test system: kidney bean stem rot fungus (Sclerotinia sclerotiorum); assay: Test Example 4: kidney bean stem rot control by foliar spray; settings: 500 ppm spray on kidney bean (NAGAUZURA SAITOU); four days after inoculation
[2] = test system: wheat leaf blotch fungus (Septoria tritici); assay: Test Example 5: wheat leaf blotch control by foliar spray; settings: 500 ppm spray on wheat (APOGEE); inoculated after 4 days; assessed after 3 days + 14 to 18 days
[3] = test system: cucumber powdery mildew fungus (Sphaerotheca fuliginea); assay: Test Example 6 and Comparative Test Example: cucumber powdery mildew control by foliar spray; settings: 500 ppm spray on cucumber (SAGAMI HANJIRO); 8 days after inoculation
[4] = test system: soybean rust fungus (Phakopsora pachyrhizi); assay: Test Example 7: soybean rust control by foliar spray; settings: 200 ppm spray on soybean (KUROSENGOKU); inoculated after 2 days; assessed after 3 + 14 days
[5] = test system: barley scald fungus (Rhynchosporium secalis); assay: Test Example 8: barley scald control by foliar spray; settings: 200 ppm spray on barley (NISHINOHOSHI); inoculated after 2 days; assessed after 3 + 7 days
[6] = test system: cucumber target leaf spot fungus (Corynespora cassiicola); assay: Test Example 9: cucumber target leaf spot control by foliar spray; settings: 200 ppm spray on cucumber (SAGAMI HANJIRO); inoculated after one day; 7 days under high humidity
[7] = test system: cucumber anthracnose fungus (Colletotrichum lagenarium); assay: Test Example 10: cucumber anthracnose control by foliar spray; settings: 200 ppm spray on cucumber (SAGAMI HANJIRO); inoculated after one day; assessed after 1 + 6 days
[8] = test system: cotton aphid (Aphis gossypii); assay: Test Example 11: cotton aphid control on cucumber leaves; settings: 500 ppm, 20 mL sprayed on infested cucumber; surviving insects counted after 6 days

| Structure (SMILES) | area of lesion spots on the treated plant relative to that on an untreated plant [1] | area of lesion spots on the treated plant relative to that on an untreated plant [2] | area of lesion spots on the treated plant relative to that on an untreated plant [3] | area of lesion spots on the treated plant relative to that on an untreated plant [4] | area of lesion spots on the treated plant relative to that on an untreated plant [5] | area of lesion spots on the treated plant relative to that on an untreated plant [6] | area of lesion spots on the treated plant relative to that on an untreated plant [7] | control value [8] |
| --- | --- | --- | --- | --- | --- | --- | --- | --- |
| COc1cccc(-n2nnn(C)c2=O)c1COc1ccc(-c2cccc(F)c2)cc1C [compound 24] | ≤ 30% | ≤ 30% | ≤ 30% | ≤ 30% | ≤ 30% | ≤ 30% | ≤ 30% | ≥ 90% |
| COC(=O)c1ccc(OCc2c(OC)cccc2-n2nnn(C)c2=O)c(C)c1 [compound 93] | ≤ 30% | ≤ 30% | ≤ 30% |  | ≤ 30% |  | ≤ 30% | ≥ 90% |
| Cc1cc(OCc2c(C)cccc2-n2nnn(C)c2=O)ccc1-c1ccccc1 [compound 29] | ≤ 30% | ≤ 30% | ≤ 30% | ≤ 30% | ≤ 30% | ≤ 30% | ≤ 30% | ≥ 90% |
| Cc1cc(C2CC2)ccc1OCc1c(C)cccc1-n1nnn(C)c1=O [compound 100] | ≤ 30% | ≤ 30% | ≤ 30% | ≤ 30% | ≤ 30% | ≤ 30% | ≤ 30% |  |
| COc1cccc(-n2nnn(C)c2=O)c1COc1ccc(-c2ccccc2)cc1C [compound 7] | ≤ 30% | ≤ 30% | ≤ 30% | ≤ 30% | ≤ 30% | ≤ 30% | ≤ 30% |  |
| COc1cccc(-n2nnn(C)c2=O)c1COc1ccc(-c2cc(C)ccc2C)cc1C [compound 19] | ≤ 30% | ≤ 30% | ≤ 30% | ≤ 30% | ≤ 30% | ≤ 30% | ≤ 30% |  |
| COc1cccc(-n2nnn(C)c2=O)c1COc1ccc(Cc2ccccc2)cc1C [compound 90] | ≤ 30% | ≤ 30% | ≤ 30% |  | ≤ 30% | ≤ 30% | ≤ 30% | ≥ 90% |
| COc1cccc(-n2nnn(C)c2=O)c1COc1ccc(Oc2ccccc2F)cc1C [compound 61] | ≤ 30% | ≤ 30% | ≤ 30% | ≤ 30% | ≤ 30% | ≤ 30% | ≤ 30% |  |
| CCN(c1ccccc1)c1ccc(OCc2c(C)cccc2-n2nnn(C)c2=O)c(C)c1 [compound 79] |  |  |  | ≤ 30% | ≤ 30% |  | ≤ 30% | ≥ 90% |
| Cc1cccc(Oc2ccc(OCc3c(C)cccc3-n3nnn(C)c3=O)c(C)c2)c1 [compound 64] | ≤ 30% | ≤ 30% | ≤ 30% | ≤ 30% | ≤ 30% | ≤ 30% | ≤ 30% |  |
| CCCC(C)c1ccc(OCc2c(C)cccc2-n2nnn(C)c2=O)c(C)c1 (stereo not drawn) [compound 106] | ≤ 30% | ≤ 30% | ≤ 30% | ≤ 30% | ≤ 30% | ≤ 30% | ≤ 30% |  |

Source: patent US9512090B2, “Tetrazolinone compound and use thereof” (Sumitomo Chemical Company, Limited, priority 2013, dated 2016)
